Data from the supplement of paper PMC10382679.
Single values of this set are uncertain.

B1: Rpb7; numbered along this chain (parent)
chain: MFFIKDLSLNITLHPSFFGPRMKQYLKTKLLEEVEGSCTGKFGYILCVLDYDNIDIQRGRILPTDGSAEFNVKYRAVVFKPFKGEVVDGTVVSCSQHGFEVQVGPMKVFVTKHLMPQDLTFNAGSNPPSYQSSEDVITIKSRIRVKIEGCISQVSSIHAIGSIKEDYLGAI

What was measured:
[1] = variants of: B1; test: log2 fold change of mutant abundance, UV-irradiated vs unirradiated; higher = more UV resistant (enriched after UV); settings: with Saccharomyces cerevisiae rad7Δ rad26Δ; UV dose (J/m2): 10; genetic background: rad7Δ rad26Δ rpb7Δ + plasmid RPB7 library; outgrowth: 10 cell divisions
Experimental: (§1)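 Error-prone PCR random mutant library of yeast RPB7 (codons 2-171) on a LEU2 plasmid, shuffled into rad7Δ rad26Δ S. cerevisiae (BJ5465 background) with genomic RPB7 deleted. Cells were irradiated with 10 J/m2 UV (254 nm) or left unirradiated and grown for 10 divisions. Plasmid RPB7 amplicons were Illumina-sequenced and per-codon amino-acid counts were compared UV vs no UV with NOISeq (3 repeats, ARSyNseq batch correction). Positive log2FC means enrichment after UV, i.e. UV resistance / derepressed TCR.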

[2] = variants of: B1; test: NOISeq theta enrichment statistic, UV-irradiated vs unirradiated (dimensionless); higher = more UV resistant (enriched after UV); settings: with Saccharomyces cerevisiae rad7Δ rad26Δ; UV dose (J/m2): 10; genetic background: rad7Δ rad26Δ rpb7Δ + plasmid RPB7 library; outgrowth: 10 cell divisions
Experimental: as §1

Variant | log2 fold change of mutant abundance [1] | NOISeq theta enrichment statistic [2]
I11L | -0.211 | -0.282
I11V | 0.0246 | 0.0706
I11N | 0.27 | 0.445
R21L | 0.186 | 0.535
R21Q | 0.00867 | 0.0409
R21H | -0.864 | -0.455
R21G | -0.365 | -0.407
R21C | -0.217 | -0.15
R21P | -0.252 | -0.3
R21S | -0.0949 | -0.0548
R21E | -0.429 | -0.38
R21W | -1.36 | -0.588
L26Q | -0.0127 | -0.0212
L26H | -1.15 | -0.498
L26R | 0.272 | 0.293
L26V | -0.24 | -0.287
L26I | -0.173 | -0.442
L26P | 0.0188 | 0.024
L26S | -0.192 | -0.0824
F3I | 0.0411 | 0.0982
F3V | -0.163 | -0.159
F3R | 1.18 | 0.713
F3G | -0.166 | -0.127
F3C | -0.0258 | -0.0382

Variant | log2 fold change of mutant abundance [1] | NOISeq theta enrichment statistic [2]
F3H | -1.82 | -0.805
F3Y | -0.0409 | -0.111
F3L | 0.0494 | 0.123
F3S | -0.00578 | -0.00987
L13P | 0.0947 | 0.178
L13I | -0.258 | -0.704
L13R | -0.38 | -0.291
L13F | -0.243 | -0.479
L13H | -0.138 | -0.321
L13T | 0.121 | 0.0633
L13V | -0.713 | -0.675
F18N | -0.921 | -0.442
F18I | -0.0514 | -0.202
F18Y | 0.0482 | 0.209
F18C | -0.159 | -0.226
F18H | -0.00718 | -0.00406
F18V | -0.143 | -0.203
F18T | -0.483 | -0.357
F18L | 0.146 | 0.858
F18S | -0.373 | -1.22
F18P | -0.244 | -0.113
L7Q | -0.947 | -0.427
L7I | 0.199 | 0.39
L7H | 0.0965 | 0.232

Variant | log2 fold change of mutant abundance [1] | NOISeq theta enrichment statistic [2]
L7P | 0.0254 | 0.03
L7V | 0.0891 | 0.0916
L7R | 0.0964 | 0.112
L7F | -0.145 | -0.261
N10Y | -0.111 | -0.287
N10D | -0.0154 | -0.0334
N10S | 0.0507 | 0.245
N10R | -1.05 | -0.571
N10H | -0.0542 | -0.0806
N10P | -0.0777 | -0.0558
N10K | -0.0298 | -0.0912
N10I | -0.0799 | -0.391
N10C | 0.425 | 0.255
N10T | 0.00365 | 0.0065
L9S | 0.557 | 0.425
L9M | -0.0513 | -0.0198
L9R | -0.00302 | -0.00582
L9Q | 0.711 | 0.308
L9F | 0.13 | 0.304
L9A | -1.17 | -0.446
L9P | -0.0168 | -0.0191
L9H | -0.0402 | -0.22
L9V | 0.0634 | 0.0721
L9I | 0.0636 | 0.122

Variant | log2 fold change of mutant abundance [1] | NOISeq theta enrichment statistic [2]
L9Y | -0.321 | -0.142
D6E | 0.158 | 0.237
D6S | 0.256 | 0.248
D6R | -0.787 | -0.358
D6Y | 0.0444 | 0.0803
D6H | -0.276 | -0.302
D6T | -0.338 | -0.301
D6A | 0.0895 | 0.104
D6V | 0.103 | 0.27
D6G | 0.116 | 0.243
D6N | 0.116 | 0.182
K23V | 0.15 | 0.0893
K23R | 0.0372 | 0.168
K23P | 0.127 | 0.105
K23M | -0.198 | -0.728
K23E | -0.0964 | -0.378
K23N | -0.0353 | -0.107
K23D | 0.811 | 0.366
K23L | 1.28 | 0.552
K23Q | -0.073 | -0.125
K23I | -0.3 | -0.225
K23Y | -0.0124 | -0.00654
K23S | -0.182 | -0.188
K23W | 0.66 | 0.318

Variant | log2 fold change of mutant abundance [1] | NOISeq theta enrichment statistic [2]
K23T | 0.00255 | 0.00435
F17I | -0.588 | -1.15
F17C | -0.199 | -0.378
F17Y | 0.0336 | 0.164
F17R | 0.435 | 0.284
F17L | -0.402 | -2.28
F17T | -1.12 | -0.459
F17N | -0.24 | -0.0932
F17H | -0.604 | -0.229
F17S | -0.118 | -0.336
F17V | -0.22 | -0.321
I4Y | -0.28 | -0.113
I4S | 0.353 | 0.319
I4V | 0.103 | 0.154
I4R | -0.134 | -0.129
I4F | 0.0748 | 0.0938
I4T | 0.101 | 0.215
I4N | 0.197 | 0.293
I4M | 0.318 | 0.312
I4L | 0.342 | 0.385

Two entries picked at random from those above:
Variant | log2 fold change of mutant abundance [1] | NOISeq theta enrichment statistic [2]
F17V | -0.22 | -0.321
F17S | -0.118 | -0.336
